Data published in US12077797B2, “Oligopeptide with lipid-lowering activity, preparation method and application thereof” (Nanjing University of Finance and Economics, priority 2022, dated 2024).
At least one peptide structure holds a part that was inferred or is arguable (an end, a ring closure or a residue). Where a SMILES comes first, the peptide text is derived from it.

Experiments:
[1] = tested on: HepG2 cells induced by sodium palmitate (PA); assay: Oil red O staining, lipid droplet secretion / lipid content in PA-induced HepG2 cells; assay type: cell-based; conditions: for lipid content in the cells (calculated as 100% of the blank control): PA-induced model 198.89±3.37%
[2] = tested on: HepG2 cells induced by sodium palmitate (PA); assay: Determination of triglyceride (TG) content of PA-induced HepG2 cells; assay type: cell-based; conditions: for content of triglyceride in the cells: normal cells 38.04±3.18, PA-induced 117.89±11.78 μmol/gprot, FIG. 5D

## C[C@H](N)C(=O)N[C@@H](Cc1ccc(O)cc1)C(=O)N1CCC[C@H]1C(=O)N[C@@H](Cc1ccccc1)C(=O)O [AYPF] (H-AYPF-OH; N-terminus and C-terminus assumed)
[1]; 64 μM and 128 μM, FIGS. 5B-5C
  increase of lipid droplet secretion induced by PA: significantly reduce
[1]; 64 μM
  lipid content in the cells (calculated as 100% of the blank control): 138.91±1.54%
[1]; 128 μM
  lipid content in the cells (calculated as 100% of the blank control): 117.84±1.60%
[2]; 64 μM and 128 μM, dose-dependent
  increase of intracellular triglyceride content: significantly alleviate
[2]; 64 μM
  content of triglyceride in the cells: 73.25±7.12 μmol/gprot
[2]; 128 μM
  content of triglyceride in the cells: 62.83±4.51 μmol/gprot
